Test results from article PMC9505868.
Results are given in words; binding and its absence hold for the method and conditions named. In cells and extracts the contact can be indirect. Some entries that bind do so weakly or less than the wild type.

Amino acid sequences for entries named in this document (tags omitted).
UniProt Q05128: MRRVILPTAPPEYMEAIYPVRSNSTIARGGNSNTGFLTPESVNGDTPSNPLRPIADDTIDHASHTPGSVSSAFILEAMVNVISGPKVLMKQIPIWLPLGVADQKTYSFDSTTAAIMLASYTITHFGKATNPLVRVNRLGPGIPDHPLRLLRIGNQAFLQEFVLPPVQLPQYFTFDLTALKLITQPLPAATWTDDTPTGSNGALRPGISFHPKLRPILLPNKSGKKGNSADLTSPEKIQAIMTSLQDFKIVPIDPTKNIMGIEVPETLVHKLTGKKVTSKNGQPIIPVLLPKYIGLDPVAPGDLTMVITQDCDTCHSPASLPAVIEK
UniProt P18272: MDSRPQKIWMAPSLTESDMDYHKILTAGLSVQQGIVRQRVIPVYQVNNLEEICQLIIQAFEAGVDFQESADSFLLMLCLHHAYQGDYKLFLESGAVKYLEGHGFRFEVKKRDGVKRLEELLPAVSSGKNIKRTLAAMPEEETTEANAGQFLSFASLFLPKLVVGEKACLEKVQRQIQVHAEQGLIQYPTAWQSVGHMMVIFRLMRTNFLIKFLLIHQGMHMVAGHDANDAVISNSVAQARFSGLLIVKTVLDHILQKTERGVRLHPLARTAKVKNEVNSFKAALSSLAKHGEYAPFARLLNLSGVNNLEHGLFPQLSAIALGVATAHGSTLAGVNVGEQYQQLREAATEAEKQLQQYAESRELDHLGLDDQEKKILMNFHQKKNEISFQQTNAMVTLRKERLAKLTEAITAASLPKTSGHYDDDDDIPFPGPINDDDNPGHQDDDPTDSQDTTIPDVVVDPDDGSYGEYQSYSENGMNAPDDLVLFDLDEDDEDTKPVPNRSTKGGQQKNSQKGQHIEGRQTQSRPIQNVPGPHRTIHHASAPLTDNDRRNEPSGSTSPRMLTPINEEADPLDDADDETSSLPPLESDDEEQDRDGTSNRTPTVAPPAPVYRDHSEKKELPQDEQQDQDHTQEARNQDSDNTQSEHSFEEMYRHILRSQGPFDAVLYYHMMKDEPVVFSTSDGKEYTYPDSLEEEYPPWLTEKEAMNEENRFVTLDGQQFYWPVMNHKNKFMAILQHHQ
UniProt P11940: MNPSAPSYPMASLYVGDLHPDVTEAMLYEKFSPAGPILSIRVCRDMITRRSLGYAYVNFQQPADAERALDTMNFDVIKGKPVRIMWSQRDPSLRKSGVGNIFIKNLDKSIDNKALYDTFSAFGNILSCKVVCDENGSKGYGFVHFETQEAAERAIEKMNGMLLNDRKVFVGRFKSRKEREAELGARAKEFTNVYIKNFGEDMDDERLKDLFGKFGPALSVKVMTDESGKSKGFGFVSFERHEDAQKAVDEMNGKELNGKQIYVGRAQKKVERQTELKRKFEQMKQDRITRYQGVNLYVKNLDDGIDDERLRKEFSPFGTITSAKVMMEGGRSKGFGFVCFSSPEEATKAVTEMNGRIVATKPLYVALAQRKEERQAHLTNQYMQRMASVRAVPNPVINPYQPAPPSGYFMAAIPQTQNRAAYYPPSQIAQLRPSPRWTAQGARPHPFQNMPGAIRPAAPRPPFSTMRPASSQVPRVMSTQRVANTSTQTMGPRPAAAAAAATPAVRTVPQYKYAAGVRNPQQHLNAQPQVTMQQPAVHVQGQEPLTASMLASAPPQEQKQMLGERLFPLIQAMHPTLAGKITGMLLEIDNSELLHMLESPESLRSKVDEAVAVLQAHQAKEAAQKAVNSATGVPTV
UniProt Q05323: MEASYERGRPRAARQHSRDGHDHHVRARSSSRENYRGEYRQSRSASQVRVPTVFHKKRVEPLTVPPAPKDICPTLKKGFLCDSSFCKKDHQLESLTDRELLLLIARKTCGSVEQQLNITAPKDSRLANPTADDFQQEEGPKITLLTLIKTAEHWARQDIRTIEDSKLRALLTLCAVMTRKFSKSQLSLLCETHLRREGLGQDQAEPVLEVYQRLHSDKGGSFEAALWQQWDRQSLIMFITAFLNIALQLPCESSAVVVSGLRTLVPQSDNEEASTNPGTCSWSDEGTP

Key:
[1] = target: GFP10-VP40 (EBOV VP40 fused to the 10th beta-strand of GFP) (Ebola virus (EBOV)) (UniProt Q05128); assay: split reporter
[2] = target: Ebola virus nucleoprotein (NP) (Ebola virus (EBOV)) (UniProt P18272); assay: proximity ligation

Substance | binding [1] | binding [2]
GFP11-PABPC1 (polyA binding protein PABPC1 tagged with GFP11) (from UniProt P11940 1-636) | no binding | –
Ebola virus VP30 (from UniProt Q05323 1-288) | – | binds
